Test results: article PMC10163288
Some of the results follow.

B1: il2ra_site2_2erj_normal_mot_HHH_b1_03107_000000098_0001_39_52_H_._HHH_b2_06291_af2_0002_0000300011_0000001_1 (protein)
chain: SSSSNEAWELAAEASIRALELFRRGNPEEARRLIEEALEEVEELNNPAALRYLEFARRDLKSSSS
B2: il2ra_site1_3nfp_normal_mot_HHH_b1_06185_af2_000000236_0001_1_19_H_._HHH_b1_03058_af2_0001_0000100016_0000001_0_af2pred_0001_af2pred_1 (protein)
chain: SSSSSEEAEELYERIREELEELAKRGDVQEVLKLANEAIRLLARLGDPELARKLLRFARELSSSS
B3: il2ra_site2_2erj_normal_mot_f45d1148d8c01955f14ecc842cbfa76e_0001_1_af2_000000069_0001_35_50_H_._HHH_b1_00942_af2_0001_0000500016_0000001_0 (protein)
chain: SSSSDERLEELYKLAVRLLRLVSEGDEEEFEKVFEELQRLIEELDSLAAKRILEHLRELLHSSSS
B4: il2ra_site2_3nfp_normal_mot_HHH_b2_05281_000000198_0001_39_56_H_._HHH_b1_05931_0002_0000400033_0000001_0 (protein)
chain: SSSSDVRERVEELLREVEKLEEEGNPEEAEKVLAEAAHLAYERGDSEAFILVAEFAFEVRQSSSS
B5: il2ra_site2_3nfp_sap_26_mot_HHH_b2_00729_000000274_0001_42_55_H_._HHH_b1_02394_0001_0000200018_0000001_0_0001 (protein)
chain: DEEAEEFAELVRQGNEEEVEEFVRELAERAGIPPEHVVFALLAVALFNGLIPPRESRELREKLQK
B6: il2ra_site1_1z92_normal_mot_3d621733409fa4d2bc95fa1761ba6d8e_0001_af2_000000005_0001_1_12_H_._HHH_b2_04933_0001_0000200013_0000001_0_af2pred_0001_af2pred_1 (protein)
chain: SSSSSEEAEEAIRLIEELNRLFHEGDEEEFEKLAEEVREFAERANNRSLEKFLELAEKSLSSSSS
B7: il2ra_site1_1z92_normal_mot_HHH_b1_07156_000000060_0001_21_38_H_._HEEHE_0071_af2_0002_0000600025_0000001_0_af2pred_0001_af2pred_1 (protein)
chain: SEEEVIERDVEKAAELAGVPSFEVHVENGTVHFTVEGDDVRARSAAKLVERLVRDAGHSVEVTTK
B8: il2ra_site2_3nfp_sap_25_mot_HHH_b1_03309_000000252_0001_1_19_H_._HHH_b1_06314_0001_0000100009_0000001_0_0001 (protein)
chain: SSSSDHEEYLEAALELVKLLLEEGDPEAARRVLELLIKAAEDNRDEEVLERAEELEEQINSSSSS
B9: il2ra_site1_3nfp_sap_13_mot_7a4252a17c26caee427851ffd8bc664f_0001_000000055_0001_1_12_H_._HHH_b1_05968_af2_0001_0000100005_0000001_0_0001_af2pred_0001_af2pred (protein)
chain: SSSSSSLKELFREVREAARRGDLEEAERLVREAIEIAEELGNEAVVKFLRSILRTIEQAKSSSSS
B10: il2ra_site2_2erj_normal_mot_HHH_b2_02500_af2_000000175_0001_19_35_H_._HHH_b1_00111_0001_0000100002_0000001_0 (protein)
chain: SSSSAEEAAEFVERDVERLLEEGDPQAAESALRLLERYAEASRSEYLREVVKELERLIEELSSSS
B11: il2ra_site2_2erj_sap_30_mot_HHH_b1_00612_000000025_0001_42_56_H_._HHH_b2_05479_af2_0001_0000200009_0000001_0_0001 (protein)
chain: SSSSSESLEAAREFAQEAYENGDRSALELFLEFAERSLEATGDPRIEELLEYIRELLEELSSSSS
B12: il2ra_site1_2b5i_normal_mot_22370d59370c406a0c205a431f537cfa_0001_af2_000000141_0001_1_31_H_._HHH_b1_01338_af2_0001_0000100004_0000001_0_af2pred_0001_af2pred (protein)
chain: SSSSDDELLRFAVRVIFKLRAEFGLSAEQAKELDKIAAELVEEGVSEEEIEEILREVAEELSSSS
B13: il2ra_site1_1z92_sap_9_mot_HHH_b2_04375_000000267_0001_42_56_H_._HHH_b2_04201_af2_0001_0000600051_0000001_0_0001_af2pred_0001_af2pred_swapped (protein)
chain: NLSTREEIEEAIKKNDDELLKRILELAERAAGDPKLAKQFLKILIAKLLGDPEEAEKIVERIERR
B14: il2ra_site1_3nfp_sap_18_mot_HHH_b1_02896_af2_000000287_0001_1_17_H_._HHH_b1_08185_0001_0000800023_0000001_0_0001 (protein)
chain: SSSSTEELEELLELVEEAYRALQEGDEELVEELLEEAKELAKKLGDKIALRLLEDIEENTSSSSS
B15: il2ra_site2_3nfp_normal_mot_HHH_b2_04451_000000238_0001_21_37_H_._HHH_b1_01319_af2_0001_0000700039_0000001_0 (protein)
chain: SSSSDLEELAEELLELVEKARTEEEKNELLRLLAELTEEVAKAGDEEAARLILEAFQLLQNSSSS
B16: il2ra_site2_3nfp_sap_21_mot_HHH_b1_07114_000000063_0001_43_53_H_._5b280ff452c1d219987978312b678990_0001_0001_0000500039_0000001_0_0001 (protein)
chain: SSSSSKAEEYLEAVVKVIEEALEAGDRESARSSLEAAEQVAELHGDEELLERLEELKELVNSSSS
B17: il2ra_site1_3nfp_normal_mot_HHH_b1_04049_af2_000000244_0001_42_55_H_._d1fb33ed66649044859e967e86ea168f_0001_af2_0001_0000400011_0000001_0_af2pred_0001_af2pred_1 (protein)
chain: SRERAIRTIIRSLKRHPDPEVRRLAEEAEELLENGDPEEALKVLKEAAELAGDPVLKELIQRLLE
B18: il2ra_site1_3nfp_sap_8_mot_HHH_b1_07440_af2_000000231_0001_1_19_H_._HHH_b1_05395_af2_0001_0000300015_0000001_0_0001 (protein)
chain: SSSSSEVRKRAQRLIKEAMEANAHGNPEEAEELLREAEELAKEANDEWALKMIRELLERVTSSSS
B19: il2ra_site1_3nfp_normal_mot_HHH_b1_02721_af2_000000134_0001_39_56_H_._HHH_b1_06677_0001_0000400043_0000001_0 (protein)
chain: SSSSSREAQEALREITEALKEGDYELAEKLIEEAEELAEELNSELLKRLLEQLKEYLERLKSSSS

target: il2ra, P01589; test: yeast display titration

Apparent Kd, inactive:
B1 no binding seen
B2 no binding seen
B3 no binding seen
B4 no binding seen
B5 no binding seen
B6 no binding seen
B7 no binding seen
B8 no binding seen
B9 no binding seen
B10 no binding seen
B11 no binding seen
B12 no binding seen
B13 no binding seen
B14 no binding seen
B15 no binding seen
B16 no binding seen
B17 no binding seen
B18 no binding seen
B19 no binding seen

Copied from the entries so far for reference:
Apparent Kd, inactive:
B9 no binding seen
B10 no binding seen
